One compound from patent US20020169394A1, “Integrated tissue poration, fluid harvesting and analysis device, and method therefor” (priority 1993, published 2002) can be followed below.

In this assay the test system is subjects left forearm. Briefly: Lidocaine delivery through porated stratum corneum with ultrasound; numbness assessed by rubbing a 30 gauge wire across the test site. The format is in vivo, human. Particulars: Site 2 porated plus ultrasound; first 5 minute application. The source says: The lidocaine solution also contained a chemical permeation enhancer formulation designed to enhance its passive diffusion across the stratum corneum. A drawing of an illustrative delivery apparatus 300 is shown in FIG. 50, wherein the apparatus comprises a housing 304 enclosing a reservoir 308 for holding a drug-containing solution 312. The top portion of the housing comprises an ultrasonic transducer 316 for providing sonic energy to aid in transporting the drug-containing solution through micropores; 320 in the stratum corneum 324. A port 328 in the ultrasonic transducer permits application of pressure thereto for further aiding in transporting the drug-containing solution through the micropores in the stratum corneum. The delivery apparatus is applied to a selected area of an individual's skin such that it is positioned over at least one, and preferably a plurality, of micropores. […]
Five subjects were tested for the effectiveness of drug delivery using poration together with ultrasound. […] The measured output of the amplifier to the transducer was 0.090 watts RMS.
After application of the lidocaine, sensation measurements were made by rubbing a 30 gauge wire across the test site. […] Both sites were assessed for numbness using a scale of 10 to 0, where 10 indicated no numbness and 0 indicated complete numbness as reported by the test subjects. […]

`CCN(CC)CC(=O)Nc1c(C)cccc1C` [lidocaine]: the “diameter of circle outside which no numbness” value stood at 2.5 cm.
